In PubChem BioAssay AID1487 (National Center for Advancing Translational Sciences (NCATS), 2009):
The other results are listed elsewhere or left out. Shown are side measurements of this screen, not its main read-out; they come without a call. Most of these compounds were active or inconclusive in the main read-out, so they are no random draw. Words in brackets tell the shape of the fitted curve; partial curves, single points and poor fits give uncertain potencies.

Experiment: qHTS Assay for Modulators of Lamin A Splicing
Details: HeLa LMNA splicing GFP/RFP minigene ratio, 48 h
In short: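 S3 HeLa stable clones carrying a lamin A-EGFP splicing minigene plus DsRed2 were seeded at 600 cells/well in Opti-MEM with 2% FBS, pin-dosed and incubated 48 h at 37°C. Acumen cytometry (488 nm) gave the GFP/RFP total-intensity ratio.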

[1] = measured here: GFP splicing reporter channel
[2] = measured here: RFP viability control channel

**Q.** With CCOC(=O)C1=C(C)NC(=O)CC1c1cc(OC)c(OC)cc1Br (centres undefined) as the molecule, how does the AC50 [1] read?
**A.** 0.00282 µM [rising, full curve, poor fit]

**Q.** Which AC50 [2] does the source give for CCOc1ccc(S(=O)(=O)N2CCN(C(=O)c3sccc3C)CC2)cc1 here?
**A.** 15.8 µM [rising, single point]

**Q.** Which results are given for OCCn1c(-c2ccc(F)cc2)csc1=Nc1ccccc1?
**A.** AC50 [1]: 11.2 µM [rising, partial curve, poor fit]; AC50 [2]: 25.1 µM [rising, partial curve]

**Q.** For Oc1c(Br)cc(Br)cc1/C=N/NC(=S)N[C@H]1CC2C=CC1C2 (some centres undefined), which AC50 [1] is on record?
**A.** 20 µM [falling, partial curve, poor fit]

**Q.** And the AC50 [2]?
**A.** 0.631 µM [falling, full curve]

**Q.** Which AC50 [2] does the source give for Cc1cccc(C)c1OCC(=O)Nc1cccc(NC(=O)c2ccco2)c1 here?
**A.** 5.01 µM [rising, partial curve, poor fit]

**Q.** Which AC50 [2] does the source give for CCOc1ccccc1N(CC(=O)Nc1ccc2c(c1)OCCO2)S(C)(=O)=O here?
**A.** 7.08 µM [rising, full curve, poor fit]

**Q.** Which results are given for CCCCC[C@H](O)/C=C\[C@@H]1[C@H](O)CC(=O)[C@@H]1CCCCCCC(=O)O?
**A.** AC50 [1]: 0.00316 µM [falling, full curve]; AC50 [2]: 0.00631 µM [falling, full curve, poor fit]

**Q.** Which AC50 [2] does the source give for O=C(N/N=C/c1ccc(Cl)cc1)c1sccc1OCc1ccc(F)cc1 here?
**A.** 1.78 µM [rising, partial curve]

**Q.** With Cc1c(NC(=O)Nc2ccccc2)cccc1[N+](=O)[O-] as the molecule, how does the AC50 [2] read?
**A.** 11.2 µM [rising, partial curve, poor fit]

**Q.** What does the source list for CCc1c(C)sc(NC(=S)NC(C)C2CCCO2)c1C(=O)OC (centres undefined)?
**A.** AC50 [1]: 31.6 µM [rising, single point]; AC50 [2]: 20 µM [rising, single point]

**Q.** With Cc1ccc(-c2noc(CCC(=O)NCCCN3CCN(c4cccc(Cl)c4)CC3)n2)cc1 as the molecule, how does the AC50 [2] read?
**A.** 35.5 µM [rising, single point]

**Q.** With N#CCCn1cc(/C=N/NC(N)=S)c(-c2ccc(-c3ccccc3)cc2)n1 as the molecule, how does the AC50 [2] read?
**A.** 20 µM [falling, single point]

**Q.** Which results are given for COc1ccc(C(=O)Nc2cccc3cccnc23)cc1OC?
**A.** AC50 [1]: 35.5 µM [falling, single point]; AC50 [2]: 17.8 µM [falling, single point]

**Q.** Which AC50 [1] does the source give for COc1ccc(Cn2nnnc2CN(CCCN2CCOCC2)Cc2cc3cc(OC)ccc3[nH]c2=O)cc1 here?
**A.** 5.01 µM [falling, single point]

**Q.** What about the AC50 [2] of the same molecule?
**A.** 5.62 µM [falling, single point]

**Q.** With COc1ccc(NC(=O)COC(=O)CC23CC4CC(CC(C4)C2)C3)c([N+](=O)[O-])c1 as the molecule, how does the AC50 [2] read?
**A.** 14.1 µM [rising, partial curve, poor fit]

**Q.** Which AC50 [1] does the source give for COc1cc(C(=O)Oc2ccccc2/C=N/NC(=O)c2ccc(C)cc2)cc(OC)c1OC here?
**A.** 0.0178 µM [falling, single point]

**Q.** What about the AC50 [2] of the same molecule?
**A.** 0.0316 µM [falling, partial curve]

**Q.** With Oc1ccc2cc(Br)ccc2c1CN1CCCC1 as the molecule, how does the AC50 [1] read?
**A.** 0.0891 µM [falling, full curve, poor fit]

**Q.** For C=C(Cl)COc1ccc2c(CC)cc(=O)oc2c1, which AC50 [2] is on record?
**A.** 0.178 µM [rising, full curve]

**Q.** For CC1=CC(C)(C)n2c(O)c(N=NC(N)=S)c3cccc1c32, which AC50 [2] is on record?
**A.** 1.58 µM [rising, full curve, poor fit]

**Q.** With CSc1nc2c(cnn2-c2ccc(C)c(C)c2)c(=O)[nH]1 as the molecule, how does the AC50 [1] read?
**A.** 7.08 µM [falling, partial curve, poor fit]

**Q.** And the AC50 [2]?
**A.** 7.08 µM [falling, partial curve, poor fit]

**Q.** With CN1/C(=C\C(=O)COC(=O)C2COc3ccccc3O2)C(C)(C)c2ccccc21 (centres undefined) as the molecule, how does the AC50 [2] read?
**A.** 10 µM [rising, single point]

**Q.** With Cn1cccc1/C=C1\SC(=S)N(NC(=O)c2ccc(Cl)cc2)C1=O as the molecule, how does the AC50 [2] read?
**A.** 28.2 µM [rising, partial curve]

**Q.** Which results are given for Cc1ccc(NS(=O)(=O)c2ccc3[nH]c4c(c3c2)CCCCCC4)cc1C?
**A.** AC50 [1]: 22.4 µM [falling, single point]; AC50 [2]: 35.5 µM [falling, single point]

**Q.** Which results are given for CCc1ccc(CN(C)Cc2nc(-c3cccc(Cl)c3)no2)nc1?
**A.** AC50 [1]: 35.5 µM [falling, single point]; AC50 [2]: 22.4 µM [falling, single point]

**Q.** Which AC50 [2] does the source give for CCOC(=O)COc1ccc(C(=O)Nc2cccc(Cl)c2C)cc1 here?
**A.** 6.31 µM [rising, single point]

**Q.** Which AC50 [2] does the source give for CCCCN(CCCNC(=O)C1CCN(S(=O)(=O)N2CCOCC2)CC1)c1ccccc1 here?
**A.** 35.5 µM [rising, single point]

**Q.** For COc1ccc(NC(=O)Cc2coc3cc(C)c(C(C)C)cc23)cc1S(=O)(=O)N1CCOCC1, which AC50 [2] is on record?
**A.** 11.2 µM [rising, partial curve, poor fit]

**Q.** Which AC50 [2] does the source give for CCOc1ccccc1CNC(=O)CCCn1c(=O)c2cccn2c2ccc(F)cc21 here?
**A.** 0.0562 µM [falling, full curve, poor fit]

**Q.** What does the source list for CCc1c(C)sc(NC(=S)N2CC(C)OC(C)C2)c1C(=O)OC (centres undefined)?
**A.** AC50 [1]: 11.2 µM [rising, partial curve]; AC50 [2]: 11.2 µM [rising, partial curve]

**Q.** With Cn1c(C(=O)NCc2ccccc2F)cc2cc(S(=O)(=O)N3CCCCC3)ccc21 as the molecule, how does the AC50 [1] read?
**A.** 25.1 µM [falling, single point]

**Q.** Which AC50 [2] does the source give for COc1cccc(/C=N/NC(=O)c2ccc([N+](=O)[O-])cc2Cl)c1O here?
**A.** 12.6 µM [rising, partial curve]

**Q.** With Cc1cc(C)n(CC(=O)Nc2cccc(C(F)(F)F)c2)n1 as the molecule, how does the AC50 [2] read?
**A.** 0.01 µM [falling, full curve, poor fit]

**Q.** What does the source list for CCN(CC)CCOCCOC(=O)C(CC)(CC)c1ccccc1 (tested in a mixture with another compound)?
**A.** AC50 [1]: 0.00708 µM [falling, full curve]; AC50 [2]: 35.5 µM [rising, single point]

**Q.** Which AC50 [1] does the source give for N/C(=N\O)c1ccccc1-n1cccc1 here?
**A.** 8.91 µM [falling, partial curve]

**Q.** And the AC50 [2]?
**A.** 25.1 µM [falling, partial curve, poor fit]

**Q.** For Cc1ccc(SCC(=O)NC(=O)NC(C)C)c(C)c1, which AC50 [2] is on record?
**A.** 3.16 µM [falling, single point]

**Q.** With Cc1cc2c(cc(C(=O)OC(C(=O)NCc3ccco3)C(C)C)n2C)o1 (centres undefined) as the molecule, how does the AC50 [2] read?
**A.** 15.8 µM [rising, partial curve]

**Q.** For OC(COc1ccc2c(c1)CCC2)CN1CCN(c2cccc(Cl)c2)CC1 (centres undefined), which AC50 [2] is on record?
**A.** 31.6 µM [rising, single point]

**Q.** With O=C(Nc1ccccc1)Nc1cc([N+](=O)[O-])ccc1F as the molecule, how does the AC50 [2] read?
**A.** 22.4 µM [rising, single point]

**Q.** With CCNc1ncc2nc(-c3cc(F)cc(F)c3)c(=O)n(C3CC3)c2n1 as the molecule, how does the AC50 [1] read?
**A.** 14.1 µM [falling, partial curve, poor fit]

**Q.** What about the AC50 [2] of the same molecule?
**A.** 22.4 µM [falling, partial curve, poor fit]

**Q.** With CCN(CC)C(=O)c1sc2c(c1C)c(=O)n(Cc1ccccc1)c(=O)n2Cc1c(C)cc(C)cc1C as the molecule, how does the AC50 [1] read?
**A.** 35.5 µM [rising, single point]

**Q.** For C/C(=N\NC(=S)NC1CCCCC1)c1c(F)cccc1F, which AC50 [2] is on record?
**A.** 35.5 µM [falling, single point]

**Q.** Which AC50 [2] does the source give for O=C(NCC(c1cccs1)N1CCOCC1)c1ccccc1NS(=O)(=O)c1ccc(Br)cc1 (centres undefined) here?
**A.** 31.6 µM [rising, single point]

**Q.** Which results are given for CCOC(=O)c1ccc(NC(=O)c2c(NCc3ccc(OC)c(OC)c3OC)sc3c2CCC(C)C3)cc1 (centres undefined)?
**A.** AC50 [1]: 1 µM [rising, partial curve, poor fit]; AC50 [2]: 25.1 µM [rising, single point]

**Q.** Which AC50 [1] does the source give for COc1ccccc1OCC(=O)N/N=C/C=C/c1ccc([N+](=O)[O-])o1 here?
**A.** 12.6 µM [falling, single point]

**Q.** And the AC50 [2]?
**A.** 11.2 µM [falling, partial curve]

**Q.** What does the source list for CCn1c(SCC(=O)Nc2ccccc2)nnc1-c1ccc(S(=O)(=O)N2CCOCC2)cc1?
**A.** AC50 [1]: 20 µM [rising, partial curve, poor fit]; AC50 [2]: 28.2 µM [rising, partial curve]

**Q.** With CCOc1ccc(C(c2c(O)cc(C)n(CCOC)c2=O)N2CCN(c3ccc(F)cc3)CC2)cc1 (centres undefined) as the molecule, how does the AC50 [2] read?
**A.** 15.8 µM [rising, single point]

**Q.** For O=C(NC(=S)N1CCc2ccccc21)c1ccccc1, which AC50 [2] is on record?
**A.** 35.5 µM [rising, single point]

**Q.** Which AC50 [2] does the source give for NNC(=O)/C(=N/Nc1ccccc1)S(=O)(=O)c1ccc(Cl)cc1 here?
**A.** 35.5 µM [rising, single point]

**Q.** With CCCC(c1nnnn1CC(=O)OCC)N(Cc1cc2c(C)cc(C)cc2[nH]c1=O)C1CCCC1 (centres undefined) as the molecule, how does the AC50 [2] read?
**A.** 35.5 µM [rising, single point]

**Q.** For Cc1ccccc1C1C(C#N)=C2N=C(N)c3c(sc4c3CCCCC4)N2C2=C1C(=O)CCC2 (centres undefined), which AC50 [1] is on record?
**A.** 35.5 µM [rising, single point]

**Q.** With Cc1nn2c(-c3cccc(NC(=O)c4ccco4)c3)nnc2c2ccccc12 as the molecule, how does the AC50 [2] read?
**A.** 14.1 µM [rising, single point]

**Q.** With C=CCOc1cccc(C2C(C(=O)c3cccs3)=C(O)C(=O)N2Cc2cccnc2)c1 (centres undefined) as the molecule, how does the AC50 [1] read?
**A.** 0.0708 µM [rising, full curve, poor fit]

**Q.** What about the AC50 [2] of the same molecule?
**A.** 0.0501 µM [rising, full curve, poor fit]

**Q.** Which AC50 [1] does the source give for CCCCn1c(C)cc(C)c(S(=O)(=O)c2ccccc2C)c1=O here?
**A.** 35.5 µM [rising, single point]

**Q.** And the AC50 [2]?
**A.** 35.5 µM [rising, single point]

**Q.** For CCN(CC)S(=O)(=O)c1ccc2oc(C(=O)N3CCc4ccccc4C3)c(C)c2c1, which AC50 [1] is on record?
**A.** 14.1 µM [rising, partial curve]

**Q.** And the AC50 [2]?
**A.** 22.4 µM [rising, partial curve]
